This note sets out measurements from US8168650B2, “Therapeutic uses of bicyclic ligands of sigma 2 receptor” (priority 2006, dated 2012).

Molecules are shown by their SMILES. Where two headings read alike, the source gives them in different places.

In the assay the test system is EMT-6 cells. Description: Cytotoxicity assay (MTS) in EMT-6 cells. It is filed as cell-based. To be noted: Mus musculus.

By EC50 is commonly meant the concentration that produces a half-maximal response.

Turning to `O=C(CCCN1CCC(O)(c2ccc(Cl)cc2)CC1)c1ccc(F)cc1` [Haloperidol, reference compound], the EC50 by setting is: (EMT6, 24 h, read-out: EC50 (μM, 24 hours), EMT-6, MTS assay, 24 hours) 345 ± 77.8 µM; (EMT6, 48 h, EMT-6, MTS assay, 48 hours, read-out: EC50 (μM, 48 hours)) 39 ± 1.4 µM.
